This is an account of results in the supplement of paper PMC7752906.

Structures can show the parent of a compound that is named as a salt. The list shows a part of the results. Single values are uncertain here, since repeats match poorly.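 About 40 Schistosoma mansoni schistosomula per well were imaged over time in bright field and compared with 0.1% DMSO wells. A drug counts as a hit if its Mahalanobis distance reaches 2.47 or more, three standard deviations above the DMSO control mean. Degeneracy is the fraction of worms scored opaque.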

The test system of this test is Schistosoma mansoni schistosomula. In words: Mahalanobis distance of static-rate-frequency phenotype descriptors from DMSO controls (dimensionless); higher = stronger phenotypic change versus DMSO. The following applies: 10 µM; 72 h.
Take `O=C(Nc1ccccc1)c1ccccc1O` [Salicylanilide]: the Mahalanobis distance is inactive: 1.87.
The figure for `Cc1ncc([N+](=O)[O-])n1CC(O)CCl` (stereo not drawn) [Ornidazole] is active: 3.71; for `N#Cc1ccc2[nH]cc(CCCCN3CCN(c4ccc5oc(C(N)=O)cc5c4)CC3)c2c1` [Vilazodone Hydrochloride] it is active: 2.71; for `CN1C(C(=O)Nc2ccccn2)=C(O)c2sccc2S1(=O)=O` [Tenoxicam] it is inactive: 1.47.
To `CN(C)c1ccc2nc3ccc(=[N+](C)C)cc-3sc2c1` [Methylene Blue] belongs inactive: 1.71.
To `Cc1c(C(N)=O)cc([N+](=O)[O-])cc1[N+](=O)[O-]` [Dinitolmide] belongs inactive: 1.85; to `C=C[C@H]1CN2CC[C@H]1C[C@@H]2[C@@H](O)c1ccnc2ccc(OC)cc12` [Quinidine], active: 2.71.
For `C[C@]12CC[C@H]3C(=CCc4cc(O)ccc43)[C@@H]1CCC2=O` [Equilin], the Mahalanobis distance is inactive: 1.7.
The figure for `C[C@]12C=CC(=O)C=C1CC[C@@H]1[C@@H]2[C@@H](O)C[C@@]2(C)[C@H]1CC[C@]2(O)C(=O)COP(=O)(O)O` [Prednisolone Sodium Phosphate] is inactive: 1.53; for `CC(=O)c1ccc2c(c1)N(CCCN1CCC(CCO)CC1)c1ccccc1S2` [Piperacetazine] it is inactive: 1.77.
The figure for `CNCC[C@H](Oc1cccc2ccccc12)c1cccs1` [Duloxetine Hydrochloride] is inactive: 2.02.
To `CCCCC(CC)CN1CN(CC(CC)CCCC)CC(C)(N)C1` (stereo not drawn) [hexetidine] belongs active: 3.
Take `COC(=O)C1=C(C)NC(C)=C(C(=O)O[C@H]2CCN(Cc3ccccc3)C2)[C@H]1c1cccc([N+](=O)[O-])c1` [Barnidipine]: the Mahalanobis distance was active: 4.12.
The figure for `CCN(CC)CCOC(=O)C(c1ccccc1)C1CCCCC1` (stereo not drawn) [Drofenine Hydrochloride] is active: 2.67; for `COCC1=C(C(=O)OC(C)OC(=O)OC(C)C)N2C(=O)[C@@H](NC(=O)/C(=N\OC)c3csc(N)n3)[C@H]2SC1` (stereo partly drawn) [Cefpodoxime Proxetil] it is inactive: 1.35.
For the molecule `CC(C)(Sc1cc(C(C)(C)C)c(O)c(C(C)(C)C)c1)Sc1cc(C(C)(C)C)c(O)c(C(C)(C)C)c1` [Probucol], the Mahalanobis distance is inactive: 1.45.
The figure for `CCC(=O)c1ccc(O)cc1` [Paroxypropione] is inactive: 1.73.
The figure for `Cn1ccnc1S` [Thiamazole] is inactive: 1.76; for `Nc1c(Br)cc(Br)cc1CN[C@H]1CC[C@H](O)CC1` [Ambroxol Hydrochloride] it is inactive: 1.27.
The figure for `Oc1ccc(Cl)c2cccnc12` [Cloxyquin] is active: 2.54; for `CCCN(CCC)C(=O)C(CCC(=O)O)NC(=O)c1ccccc1` (stereo not drawn) [Proglumide] it is inactive: 1.65.
As for `O=C1O[C@H](CO)[C@@H](O)[C@H](O)[C@H]1O` [Gluconolactone], the Mahalanobis distance was inactive: 2.42.
The figure for `CCCCCCCCCCC[C@@H](C[C@@H]1OC(=O)[C@H]1CCCCCC)OC(=O)[C@H](CC(C)C)NC=O` [orlistat] is inactive: 2.18.
To `CC(C)(S)[C@@H](N)C(=O)O` [Penicillamine] belongs inactive: 1.66.
The figure for `O=C(O)C1CSCN1` (stereo not drawn) [Timonacic] is inactive: 1.6.
For `CCC(=O)OCC(=O)[C@@]1(OC(=O)CC)[C@H](C)CC2C3C([C@@H](O)C[C@@]21C)[C@@]1(C)C=CC(=O)C=C1C[C@H]3Cl` (stereo partly drawn) [Alclometazone Dipropionate], the Mahalanobis distance is inactive: 1.82.
With `CN1CCCN=C1COC(=O)C(O)(c1ccccc1)C1CCCCC1` (stereo not drawn) [Oxyphencyclimine Hydrochloride], the Mahalanobis distance is inactive: 2.17.
To `CC(C)(Oc1ccc(Cl)cc1)C(=O)O` [Clofibric Acid] belongs inactive: 1.43; to `CC(=O)N[C@@H](CCC(N)=O)C(=O)O` [Aceglutamide], inactive: 1.86.
The figure for `CC1CCc2c(N3CCC(O)CC3)c(F)cc3c(=O)c(C(=O)O)cn1c23` (stereo not drawn) [Nadifloxacin] is inactive: 1.38; for `Cc1ccc(-c2ncc(Cl)cc2-c2ccc(S(C)(=O)=O)cc2)cn1` [Etoricoxib] it is active: 2.7.
As to `CO[C@H]1O[C@@H]2O[C@@]3(C)CC[C@H]4[C@H](C)CC[C@@H]([C@H]1C)[C@@]24OO3` [Artemether], the Mahalanobis distance was inactive: 1.31.
The figure for `NC12CC3CC(CC(C3)C1)C2` [Amantadine] is active: 2.84.
With `Cc1cc(=O)n(-c2ccccc2)n1C` [Antipyrine], the Mahalanobis distance is inactive: 1.96.
The figure for `Nc1ncnc(Nc2ccc(Cl)cc2)n1` [Chlorazanil Hydrochloride] is inactive: 1.86; for `CCOC(=O)C(C)(C)Oc1ccc(Cl)cc1` [Clofibrate] it is inactive: 2.39; for `C[C@@H]1[C@H](O)[C@@H](C)/C=C/C=C/C=C/C=C/C=C/C=C/C=C/[C@H](O[C@@H]2O[C@H](C)[C@@H](O)[C@H](N)[C@@H]2O)C[C@@H]2O[C@](O)(C[C@@H](O)C[C@@H](O)[C@H](O)CC[C@@H](O)C[C@@H](O)CC(=O)O[C@H]1C)C[C@H](O)[C@H]2C(=O)O` [Amphotericin B] it is active: 4.71.
On to `C[C@]12CC[C@@H]3c4ccc(O)cc4CC[C@H]3[C@@H]1CC[C@@H]2OC(=O)CCC1CCCC1` [Estradiol Cypionate], for which the Mahalanobis distance was active: 2.61.
The figure for `CN1CCc2cccc3c2[C@H]1Cc1ccc(O)c(O)c1-3` [Apomorphine Hydrochloride] is inactive: 2.3; for `CN1CCc2cccc3c2[C@H]1Cc1ccc(O)c(O)c1-3` [R(-)-apomorphine] it is inactive: 2.29; for `CCC(NC(C)C)C(O)c1ccc(O)c(O)c1` (stereo not drawn) [Isoetharine Mesylate] it is inactive: 1.72.
To `CCC(Cc1c(I)cc(I)c(N)c1I)C(=O)O` (stereo not drawn) [Iopanic Acid] belongs inactive: 2.13; to `CN1CC(=O)NC1=N` [Creatinine], inactive: 2.02; to `CCN[C@H]1C[C@H](C)S(=O)(=O)c2sc(S(N)(=O)=O)cc21` [Dorzolamide??hcl], inactive: 1.44.
Regarding `CC(=O)N(O)CCCCCNC(=O)CCC(=O)N(O)CCCCCNC(=O)CCC(=O)N(O)CCCCCN` [Deferoxamine], the Mahalanobis distance was inactive: 1.86.
To `CO/N=C1\C[C@]2(C[C@@H]3C[C@@H](C/C=C(\C)C[C@@H](C)/C=C/C=C4\CO[C@@H]5[C@H](O)C(C)=C[C@@H](C(=O)O3)[C@]45O)O2)O[C@H](/C(C)=C/C(C)C)[C@H]1C` [moxidectin] belongs inactive: 2.31; to `CCCCN1CCCCC1C(=O)Nc1c(C)cccc1C` (stereo not drawn) [Bupivacaine Hydrochloride], inactive: 1.86; to `CCOC(=O)NNc1nncc2ccccc12` [Todralazine Hydrochloride], active: 2.64.
Regarding `CC(C)(C)c1ccc(C(O)CCCN2CCC(C(O)(c3ccccc3)c3ccccc3)CC2)cc1` (stereo not drawn) [terfenadine], the Mahalanobis distance was inactive: 1.94.
The figure for `COc1ccc(CC2c3cc(OC)c(OC)cc3CC[N+]2(C)CCC(=O)OCCCCCOC(=O)CC[N+]2(C)CCc3cc(OC)c(OC)cc3C2Cc2ccc(OC)c(OC)c2)cc1OC` (stereo not drawn) [Atracurium Besylate] is inactive: 1.75; for `Cc1nc(Nc2ncc(C(=O)Nc3c(C)cccc3Cl)s2)cc(N2CCN(CCO)CC2)n1` [Dasatinib] it is active: 2.67.
The figure for `CCN(CCO)CCCC(C)Nc1ccnc2cc(Cl)ccc12` (stereo not drawn) [Hydroxychloroquine Sulfate] is active: 2.52.
To `COc1cc([C@@H]2c3cc4c(cc3[C@@H](O[C@@H]3O[C@@H]5CO[C@@H](c6cccs6)O[C@H]5[C@H](O)[C@H]3O)[C@H]3COC(=O)[C@H]23)OCO4)cc(OC)c1O` [Teniposide] belongs inactive: 2.19.
On to `O=c1[nH]cnc2c1ncn2[C@@H]1O[C@H](CO)[C@@H](O)[C@H]1O` [Inosine], for which the Mahalanobis distance is inactive: 1.27.
To `CCOc1ccccc1OC(c1ccccc1)C1CNCCO1` (stereo not drawn) [Reboxetine Mesylate] belongs active: 2.84; to `O=c1ccc2ccccc2o1` [Coumarin], inactive: 1.97.
The figure for `O=c1[nH]c(=O)c2ccccc2o1` [Carsalam] is inactive: 1.97.
To `Nc1ccn([C@@H]2O[C@H](CO)[C@@H](O)[C@@H]2O)c(=O)n1` [Cytarabine] belongs inactive: 2.06; to `Nc1ccc(S(=O)(=O)Nc2ccccn2)cc1` [Sulfapyridine], inactive: 1.93.
On to `CO[C@H]1C[C@H](O[C@H]2[C@H](C)[C@@H](O[C@@H]3O[C@H](C)C[C@H](N(C)C)[C@H]3O)[C@@H](C)C[C@@]3(CO3)C(=O)[C@H](C)[C@@H](O)[C@@H](C)[C@@H](C)OC(=O)[C@@H]2C)O[C@@H](C)[C@@H]1O` [Oleandomycin Phosphate], for which the Mahalanobis distance was inactive: 2.04.
To `CCN(CC)CCOC(=O)C(c1ccccc1)c1ccccc1` [Adiphenine Hydrochloride] belongs active: 3.03; to `OC(CCCN1CCCCC1)(c1ccccc1)c1ccccc1` [Diphenidol], active: 2.52; to `CCOC(=O)c1ccc(N)cc1` [Benzocaine], inactive: 1.48.
To `CC(C)(C)CC(C)(C)c1ccc(O)c(Cc2ccc(Cl)cc2Cl)c1` [clofoctol] belongs inactive: 1.82.
To `Cc1ccc(S(=O)(=O)NC(=O)NN2CCCCCC2)cc1` [Tolazamide] belongs inactive: 1.77; to `C[C@]12CC[C@@H]3c4ccc(OS(=O)(=O)O)cc4CC[C@H]3[C@@H]1CCC2=O` [Estropipate], inactive: 1.62; to `C[N+](C)(C)CCOC(=O)CCC(=O)OCC[N+](C)(C)C` [Succinylcholine Chloride], inactive: 1.63.
As to `CN(C)c1ccc(O)c2c1C[C@H]1C[C@H]3[C@H](N(C)C)C(O)=C(C(N)=O)C(=O)[C@@]3(O)C(O)=C1C2=O` [Minocycline Hydrochloride], the Mahalanobis distance is inactive: 1.92.
